Results reported in PubChem BioAssay AID602313 (National Center for Advancing Translational Sciences (NCATS), 2012).
The campaign covered roughly 390,000 compounds. About 760 (0.19%) were called active. The inconclusive results got no clear call from the source; some entries with a clear call stand among them for comparison. Calls follow the shape of the dose curve; as a rule, active = well fitted inhibition curve with a large enough effect; inconclusive = small, poorly fitted or top-dose-only effect; inactive = flat fitted curve, though single readings scatter. Potencies of inconclusive entries are doubtful fits and often do not repeat.
Potency is read from the fitted curve at half-maximal effect.

Assay: qHTS for Inhibitors of Vif-A3F Interactions: qHTS; also: nearly all actives have a fitted effect of over 65% in size; as to activity, negative = active: % of control where 0% means no effect
Details: HeLa A3F-eYFP + Vif (tagged APOBEC3F with the HIV-1 protein that degrades it), YFP fluorescence increase; series mostly up to 46.1 µM; activity, negative = active: at the top concentration
Procedure, shortened: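 Fluorescence increase (Ex 488/Em 500-530) after overnight compound treatment at 37 deg C flags inhibition of Vif-driven A3F-eYFP loss in stable HeLa A3F-eYFP/Vif cells seeded overnight beforehand.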
With NC(=O)c1ccccc1NC(=O)CC1(CC(=O)O)CCCC1 the Potency was inconclusive: 35.5 µM [inhibitor, single point].
In the case of COc1ccc(-c2csc3ncnc(N4CCN(S(=O)(=O)c5ccc(C)cc5)CC4)c23)cc1, the Potency was inconclusive: 1.78 µM [inhibitor, partial curve, poor fit].
With COCCNC(=O)c1ccc2c(=O)n(CCc3ccccc3)c(SCC(=O)CC(=O)OC)nc2c1 the “activity, negative = active” value was inactive: 0.0392%.
For C=CCSc1nc2c(C(=O)OCC)nnn2c2ccccc12, the Potency was inconclusive: 35.5 µM [inhibitor, single point].
In the case of CC1C(=O)Nc2ccc(S(=O)(=O)N3CCN(c4cccc(C(F)(F)F)c4)CC3)cc2NC1=O (stereo not drawn), the Potency was inconclusive: 10 µM [inhibitor, partial curve, poor fit].
In the case of O=C1CC(Cc2ccccc2)C(=O)N1Cc1ccco1 (stereo not drawn), the “activity, negative = active” value was inactive: -16.2%.
With Cc1cc2c(s1)c1cnn(-c3ccccc3)c(=O)c1n2C the “activity, negative = active” value was inactive: 3.88%.
For CCOC(=O)CC(=O)CSc1nc(-c2ccccc2)cc(-c2ccccc2)c1C#N, the Potency was inconclusive: 35.5 µM [inhibitor, single point].
For CC(C)(C)n1cnc2cc(NCc3cccs3)ccc21, the “activity, negative = active” value was inactive: 0.482%.
In the case of Cc1ccc2nc(NCc3ccccc3)c3nnnn3c2c1, the Potency was inconclusive: 35.5 µM [inhibitor, single point].
For O=C(CSc1n[nH]c(-c2ccccn2)n1)Nc1ccc(F)cc1, the Potency was inconclusive: 3.16 µM [inhibitor, single point].
With CC[n+]1ccc(/C=C/c2ccc(N(C)C)cc2)c2ccccc21 the “activity, negative = active” value was inactive: -3.06%.
For CCCCCN1C(=O)/C(=C/c2c(N3CCc4ccccc4C3)nc3ccccn3c2=O)SC1=S, the Potency was inconclusive: 2.82 µM [inhibitor, full curve, poor fit].
In the case of Fc1ccccc1Nc1ncnc2c1nnn2Cc1ccccc1, the Potency was inconclusive: 35.5 µM [inhibitor, single point].
With C[n+]1cn(/N=C/c2ccccc2)c2ccccc21 the “activity, negative = active” value was inactive: -24.5%.
In the case of COc1ccc(-c2cc(C(F)(F)F)c3c(N)c(C(=O)NCCSC)sc3n2)cc1, the Potency was inconclusive: 11.2 µM [inhibitor, partial curve, poor fit].
For Cc1ccc(SCCN2CCN(C)CC2)cc1, the “activity, negative = active” value was inactive: 6.3%.
For Cc1cc(C(F)(F)F)c(C#N)c(SCC(=O)Nc2nc3ccccc3s2)n1, the Potency was active: 22.4 µM.
For Cc1cccc(C)c1-n1nnnc1SCC(=O)c1c(N)n(C2CC2)c(=O)[nH]c1=O, the Potency was inconclusive: 35.5 µM [inhibitor, single point].
With CC(=O)Nc1ccc(NC(=O)CCc2ccc(C)o2)cc1 the “activity, negative = active” value was inactive: -16.6%.
With C=CCn1cc(/C=C/c2cc[n+](C)cc2)c2ccccc21 the Potency was inconclusive: 2.51 µM [inhibitor, partial curve, poor fit].
For Cc1nnc2sc(-c3ccc(NC(=O)c4ccc(-c5ccc(Cl)cc5Cl)o4)cc3)nn12, the “activity, negative = active” value was inactive: -20%.
With CN(Cc1ccccc1F)Cc1cc(=O)oc2cc(O)c(Cl)cc12 the Potency was inconclusive: 6.31 µM [inhibitor, single point].
In the case of CCn1nc(-c2ccccc2)c2nc3ccccc3nc21, the Potency was active: 25.1 µM.
With Oc1ccc(F)c2cccnc12 the “activity, negative = active” value was inactive: 6.42%.
For CCCCCC(=O)Nc1ccc(S(=O)(=O)Nc2cc(OC)nc(OC)n2)cc1, the Potency was inconclusive: 5.62 µM [inhibitor, single point].
With CCc1ccc(N2CC(C(=O)Nc3ccc(C)c(S(=O)(=O)N4CCOCC4)c3)CC2=O)cc1 (stereo not drawn) the Potency was inconclusive: 31.6 µM [inhibitor, single point].
For CN1CCN(C(=O)/C=C/c2ccccc2)CC1, the Potency was inconclusive: 0.891 µM [inhibitor, full curve, poor fit].
With O=[N+]([O-])c1cccc(/C=N/Nc2cc(Cl)nc(-c3ccccc3)n2)c1 the “activity, negative = active” value was inactive: -8.78%.
In the case of COc1ccccc1OC(C)C(=O)Nc1cccc(-c2nc3ccccc3o2)c1 (stereo not drawn), the Potency was inconclusive: 31.6 µM [inhibitor, single point].
In the case of CN(C)c1ccc(CNC(=O)Cn2c(=O)oc3cc(S(=O)(=O)N4CCCCCC4)ccc32)cc1, the “activity, negative = active” value was inactive: 0.616%.
With C[C@@]12CCC=C[C@H]1[C@H](c1ccccc1Br)N(Cc1ccccc1)C2=O the Potency was inconclusive: 35.5 µM [inhibitor, single point].
In the case of COc1ccc2nc(Nc3nc(-c4cc5ccccc5oc4=O)cs3)sc2c1, the Potency was inconclusive: 3.55 µM [inhibitor, partial curve, poor fit].
With Cc1csc(NC(=O)c2sc3nc(-c4cccs4)ccc3c2N)n1 the Potency was active: 22.4 µM.
For Cc1ccccc1OCCCN1C(=O)C(=O)c2cccc(C)c21, the Potency was inconclusive: 35.5 µM [inhibitor, single point].
In the case of COc1cccc2c1C(=O)C=C(C)C2=O, the Potency was inconclusive: 11.2 µM [inhibitor, partial curve, poor fit].
For CC(C)(C)c1ccc(OCc2nnc(-c3ccccc3)o2)cc1, the “activity, negative = active” value was inactive: 0.05%.
With CCN(c1ccccc1)S(=O)(=O)c1ccc(C(=O)Nc2nnc(C3CC3)o2)cc1 the Potency was inconclusive: 12.6 µM [inhibitor, partial curve, poor fit].
With CCCS(=O)(=O)Nc1cccc(-c2ccc3nnc(C)n3n2)c1 the Potency was inconclusive: 5.01 µM [inhibitor, single point].
In the case of NC(N)=NCCCS(=O)(=O)Nc1ccc(Nc2c3ccccc3nc3cc([N+](=O)[O-])ccc23)cc1, the Potency was inconclusive: 25.1 µM [inhibitor, partial curve, poor fit].
In the case of O=C(NNC(=S)NC1CCCCC1)c1ccccc1Br, the “activity, negative = active” value was inactive: -0.703%.
For CCN(Cc1ccccc1)S(=O)(=O)c1ccc(-c2coc(C)n2)cc1, the “activity, negative = active” value was inactive: 9.2%.
In the case of O=C(COc1ccc2ccccc2c1)N/N=C/c1ccccn1, the “activity, negative = active” value was inactive: 13.2%.
With N=C1/C(=C/c2coc3ccccc3c2=O)C(=O)N=C2SC(c3ccco3)=NN12 the Potency was inconclusive: 14.1 µM [inhibitor, single point].
In the case of C=CCN1C(=O)/C(=C/c2ccc(-c3ccc(F)cc3)o2)SC1=S, the Potency was inconclusive: 17.8 µM [inhibitor, single point].
For CCCCCCN1C[C@H](O)[C@@H](n2cc(COC(=O)c3ccccc3)nn2)C[C@@H]1c1ccc(Cl)cc1, the Potency was inconclusive: 35.5 µM [inhibitor, single point].
In the case of COC(=O)c1cccc(/C=N/NC(N)=S)c1O, the Potency was inconclusive: 2.82 µM [inhibitor, partial curve, poor fit].
With O=C(Nc1nc(-c2ccccn2)cs1)c1ccc([N+](=O)[O-])o1 the Potency was inconclusive: 14.1 µM [inhibitor, partial curve, poor fit].
For CCOC(=O)c1c(NC(=O)c2nc(S(C)(=O)=O)ncc2Cl)sc(C(C)=O)c1C, the “activity, negative = active” value was inactive: 1.68%.
With Cc1c(NN=C(C#N)C#N)c(=O)n(-c2ccccc2)n1C the Potency was inconclusive: 0.562 µM [inhibitor, partial curve, poor fit].
For Cc1ccc2c(c1)N(CCCC(=O)Nc1cccc(C(F)(F)F)c1)C(=O)CO2, the Potency was inconclusive: 10 µM [inhibitor, single point].
For CCOc1cc(/C=C2\C(=O)N(Cc3ccc(C)cc3)C(C)=C2C(=O)OC)ccc1O, the Potency was inconclusive: 35.5 µM [inhibitor, single point].
For O=C(Nc1ccccc1-c1nc2ccccc2[nH]c1=O)c1cccs1, the Potency was inconclusive: 17.8 µM [inhibitor, single point].
For COc1cc(NC(=O)Cn2cc(C(=O)c3ccc(F)cc3)c(=O)c3ccc(C)nc32)cc(OC)c1, the Potency was inconclusive: 28.2 µM [inhibitor, single point].
For CCOc1cc(C(c2c(C)[nH][nH]c2=O)c2c(C)[nH][nH]c2=O)ccc1OC(=O)c1cccc([N+](=O)[O-])c1, the “activity, negative = active” value was inactive: -11.2%.
With COc1ccc(-c2c(C)nc3c(-c4ccccn4)cnn3c2N)cc1 the Potency was inconclusive: 35.5 µM [inhibitor, single point].
With COc1ccc2c(Cl)c(C(=O)N/N=C/c3c(C)[nH]c4ccccc34)sc2c1 the Potency was inconclusive: 35.5 µM [inhibitor, single point].
For COc1ccc(/C=C(\NC(=O)c2ccccc2Cl)C(=O)NCCCC(=O)O)cc1, the Potency was inconclusive: 0.562 µM [inhibitor, full curve, poor fit].
For CC(C)(C)c1nnc2sc(SCC(=O)N3CCCc4ccccc43)nn2c1=O, the “activity, negative = active” value was inactive: -1.02%.
For COc1ccc(Nc2nc3ccccc3nc2NS(=O)(=O)c2cccs2)c(OC)c1, the Potency was inconclusive: 35.5 µM [inhibitor, single point].
With CSc1nc(Nc2ccc(F)cc2)cc(-c2ccccc2)n1 the Potency was inconclusive: 35.5 µM [inhibitor, single point].
For COc1ccccc1-n1cc([C@@H]2C[C@H]3CN(c4ccccc4)C(=O)[C@]34CCCN24)cn1, the Potency was inconclusive: 35.5 µM [inhibitor, single point].
In the case of CCCCN1C(=O)c2cccc3cc(O)cc(c23)C1=O, the Potency was active: 1.26 µM.
For CC(C)CN(C(=O)COC(=O)CCSc1ccc(Cl)cc1)c1c(N)n(Cc2ccccc2)c(=O)[nH]c1=O, the Potency was inconclusive: 7.08 µM [inhibitor, full curve].
With N#Cc1c(NC(=O)CSc2nnc(-c3ccco3)n2-c2ccccc2)sc2c1CCC2 the Potency was inconclusive: 35.5 µM [inhibitor, single point].
For CC1CN(C(=O)c2ccccc2)C(=Nc2cccc(S(=O)(=O)N(C)C)c2)S1 (stereo not drawn), the Potency was inconclusive: 6.31 µM [inhibitor, single point].
With O=C(CCN1C(=O)/C(=C\c2cccs2)SC1=S)Nc1nccs1 the Potency was inconclusive: 6.31 µM [inhibitor, single point].
In the case of CCOc1ccc2oc(C(=O)N(Cc3nnc(-c4ccccc4Cl)o3)C3CC3)c(C)c2c1, the “activity, negative = active” value was inactive: 6.1%.
